The test has as its target CHN-1::FLAG (C. elegans). The test is described as follows: co-IP; lysate of young adult worms expressing CHN-1::FLAG, anti-FLAG magnetic beads, 4°C 2 h; N2 lysate as negative control; blots with anti-AHCY-1 and anti-FLAG.

The source of these data is PMC9340540.

Results are given in words; binding and its absence hold for the method and conditions named. In cells and extracts the contact can be indirect. A result given as binding can be weak or reduced; the word gives no strength.

B1: AHCY-1 (enzyme, UniProt P27604 1-437)
chain: MAQSKPAYKVADIKLADFGRKEIILAENEMPGLMAMRSKYGPSQPLKGARIAGCLHMTIQTAVLIETLTALGAEVQWSSCNIFSTQDHAAAAIAQTGVPVYAWKGETDEEYEWCIEQTIVFKDGQPLNMILDDGGDLTNLVHAKYPQYLAGIRGLSEETTTGVHNLAKMLAKGDLKVPAINVNDSVTKSKFDNLYGIRESLPDGIKRATDVMLAGKVAVVAGYGDVGKGSAASLKAFGSRVIVTEIDPINALQAAMEGYEVTTLEEAAPKANIIVTTTGCKDIVTGKHFELLPNDAIVCNVGHFDCEIDVKWLNTNATKKDTIKPQVDRYTLKNGRHVILLAEGRLVNLGCATGHPSFVMSNSFTNQVLAQVELWTKFGTPQEYKLGLYVLPKTLDEEVAYLHLAQLGVKLTKLSDEQASYLGVPVAGPYKPDHYRY
As for B1, the binding result is “binds”.
